Experimental data published in US20250368697A1, “MODIFIED PEPTIDE DERIVED FROM URECHIS UNICINCTUS IN PREPARATION OF DRUG FOR TREATING ALCOHOLIC LIVER DISEASE” (Beijing Institute of Petrochemical Technology, priority 2024, published 2025).
Not every detail of the peptide structures is certain; ends, links or a residue may be inferred. Where no end group is shown, it is not given here.

How the values were obtained:
[1] = system: HepG2 cells; assay: Biochemical indicators (ALT, AST, TC, TG, HDL-C, LDL-C) in alcoholic damaged HepG2 cells; type: cell-based, human; conditions: 500 mM ethanol-damaged HepG2
Method: (§1) HepG2 cells are collected, digested, centrifuged, and resuspended. The HepG2 cells are then seeded into a 6-well plate at a density of 1×10^6 cells per well, with 1.6 mL of cell suspension added to each well. After incubating the plate in a 37° C., 5% CO2 incubator for 24 hours, 200 μL of distilled water is added to the blank wells as the blank group. Referring to Section 1.2.2.2 and the preparation of blank group cell sample, an anhydrous ethanol-induced damage model is established. The HepG2 cells are damaged with 500 mM anhydrous ethanol for 24 hours. The model group receives 200 μL of distilled water, while the positive control wells receive 200 μL of NAC at a final concentration of 3 mM. The treatment wells receive 200 μL of the modified peptide derived from Urechis unicinctus of F2-1 at final concentrations of 200 μM, 300 μM, and 400 μM (dissolved in water). After adding the modeling solution, the plate is incubated in a 37° C., 5% CO2 incubator for an additional 24 hours. The 6-well plate is then taken out and placed on ice. All liquids in the wells are discarded, and the cells are washed three times with pre-chilled phosphate buffer solution (PBS). High-efficiency radio immunoprecipitation assay (RIPA) lysis buffer is added, and the HepG2 cells are lysed on ice for 30 minutes. The lysates are then centrifuged at 12,000 rpm for 10 minutes at low temperature, and the white precipitate is discarded.
Reagent kits are purchased from Nanjing Jiancheng Bioengineering Institute. An enzyme-linked immunosorbent assay (ELISA) plate reader is used to measure biochemical indicators such as alanine aminotransferase (ALT), aspartate aminotransferase (AST), triglycerides (TG), total cholesterol (TC), high-density lipoprotein cholesterol (HDL-C), and low-density lipoprotein cholesterol (LDL-C).

[2] = system: interleukin-1β (IL-1β); assay: IL-1β content in alcoholic damaged HepG2 cells (ELISA); type: cell-based, human; conditions: 500 mM ethanol-damaged HepG2
Method: as §1
(§2) ELISA kits are purchased from Hangzhou Leyi Biotechnology Co., Ltd. An ELISA plate reader is used to measure indicators such as the interleukin-1β (IL-1β) ELISA kit, interleukin-6 (IL-6) ELISA kit, and Cytochrome P450 2E1 (CYP2E1) ELISA kit.

[3] = system: interleukin-6 (IL-6); assay: IL-6 content in alcoholic damaged HepG2 cells (ELISA); type: cell-based, human; conditions: 500 mM ethanol-damaged HepG2
Method: as §1, §2

[4] = system: NIAAA mice; assay: H&E staining of liver tissue of NIAAA mice; type: in vivo
[5] = system: NIAAA mice; assay: H&E staining of kidney tissue of NIAAA mice; type: in vivo
[6] = system: NIAAA mice; assay: Serum biochemical indicators (ALT, AST, TC, TG, HDL-C, LDL-C) in NIAAA mice; type: in vivo
[7] = system: Cytochrome P450 2E1 (CYP2E1); assay: CYP2E1 activity in NIAAA mice (ELISA); type: in vivo
[8] = system: tumor necrosis factor-α (TNF-α); assay: TNF-α content in liver tissue of NIAAA mice (ELISA); type: in vivo
[9] = system: IL-6; assay: IL-6 content in liver tissue of NIAAA mice (ELISA); type: in vivo
[10] = system: inducible nitric oxide synthase (iNOS); assay: iNOS content in liver tissue of NIAAA mice (ELISA); type: in vivo
[11] = 200 μM (low dose), vs model group
[12] = 50 mg/kg (low dose), vs model group

IHVKF [F2-1, IHVKF]
AST level in HepG2 cells ([1]; 200 μM (low dose)): 16.29±0.34 U/L | HDL-C level in HepG2 cells ([1]; 200 μM (low dose)): 0.08 ± 0.00 mmol/L | TC level in HepG2 cells [1, 11]: no significant effect | TG level in HepG2 cells [1, 11]: no significant effect | ALT level in HepG2 cells ([1]; 300 μM (medium dose)): 16.28±0.89 U/L | AST level in HepG2 cells ([1]; 300 μM (medium dose)): 11.78±0.73 U/L | HDL-C level in HepG2 cells ([1]; 300 μM (medium dose)): 0.10 ± 0.02 mmol/L | TC level in HepG2 cells ([1]; 300 μM (medium dose)): 0.07 ± 0.01 mmol/L | TG level in HepG2 cells ([1]; 300 μM (medium dose)): 0.50 ± 0.01 mmol/L | ALT level in HepG2 cells ([1]; 400 μM (high dose)): 9.45±0.35 U/L | AST level in HepG2 cells ([1]; 400 μM (high dose)): 8.15±0.81 U/L | HDL-C level in HepG2 cells ([1]; 400 μM (high dose)): 0.12 ± 0.02 mmol/L | LDL-C level in HepG2 cells ([1]; 400 μM (high dose)): 0.01 ± 0.01 mmol/L | TC level in HepG2 cells ([1]; 400 μM (high dose)): 0.06 ± 0.00 mmol/L | TG level in HepG2 cells ([1]; 400 μM (high dose)): 0.46 ± 0.01 mmol/L | IL-1β content in HepG2 cells [2, 11]: do not significantly reduce | IL-1β content in HepG2 cells ([2]; 300 μM (medium dose)): 129.62 ± 0.50 pg/mL | IL-1β content in HepG2 cells ([2]; 400 μM (high dose)): 121.33 ± 3.20 pg/mL | IL-6 content in HepG2 cells ([3]; 200 μM (low dose)): 109.01 ± 3.96 pg/mL | IL-6 content in HepG2 cells ([3]; 300 μM (medium dose)): 96.60 ± 0.57 pg/mL | IL-6 content in HepG2 cells ([3]; 400 μM (high dose)): 92.27 ± 1.02 pg/mL | liver histopathology (H&E staining) ([4]; high-dose group (150 mg/kg)): well-ordered hepatic cords around the central vein, a marked reduction in lipid vacuoles, and minimal inflammatory cell aggregation | liver histopathology (H&E staining) ([4]; low-, medium- and high-dose groups (50, 100, 150 mg/kg), vs model group): progressively improved hepatic cord alignment and reduced inflammation | kidney histopathology (H&E staining) ([5]; all dose groups (50, 100, 150 mg/kg), vs model group): demonstrate improvement | kidney histopathology (H&E staining) ([5]; high-dose group (150 mg/kg)): nearly normal glomerular size and shape, clear boundaries, and intact brush border structures in the renal tubules | AST level in mouse serum ([6]; 50 mg/kg (low dose)): 36.35±3.91 U/L | TG level in mouse serum ([6]; 50 mg/kg (low dose)): 0.80 ± 0.01 mmol/L | HDL-C level in mouse serum [6, 12]: no significant effect | LDL-C level in mouse serum [6, 12]: no significant effect | TC level in mouse serum [6, 12]: no significant effect | AST level in mouse serum ([6]; 100 mg/kg (medium dose)): 29.19±2.75 U/L | TC level in mouse serum ([6]; 100 mg/kg (medium dose)): 5.25 ± 0.09 mmol/L | TG level in mouse serum ([6]; 100 mg/kg (medium dose)): 0.61 ± 0.03 mmol/L | ALT level in mouse serum ([6]; 150 mg/kg (high dose)): 8.15±0.99 U/L | AST level in mouse serum ([6]; 150 mg/kg (high dose)): 28.97±1.94 U/L | HDL-C level in mouse serum ([6]; 150 mg/kg (high dose)): 3.13 ± 0.30 mmol/L | LDL-C level in mouse serum ([6]; 150 mg/kg (high dose)): 0.65 ± 0.13 mmol/L | TC level in mouse serum ([6]; 150 mg/kg (high dose)): 3.69 ± 0.21 mmol/L | TG level in mouse serum ([6]; 150 mg/kg (high dose)): 0.51 ± 0.04 mmol/L | CYP2E1 activity [7, 12]: no significant effect | CYP2E1 activity ([7]; 100 mg/kg (medium dose), vs model group): no significant effect | CYP2E1 activity ([7]; 150 mg/kg (high dose)): 9.90±0.60 U/mgprot | TNF-α content in mouse liver tissue [8, 12]: no significant effect | TNF-α content in mouse liver tissue ([8]; 100 mg/kg (medium dose)): 446.087 ± 18.44 pg/mL | TNF-α content in mouse liver tissue ([8]; 150 mg/kg (high dose)): 439.56 ± 7.74 pg/mL | IL-6 content in mouse liver tissue [9, 12]: no significant effect | IL-6 content in mouse liver tissue ([9]; 100 mg/kg (medium dose)): 123.70 ± 1.06 pg/mL | IL-6 content in mouse liver tissue ([9]; 150 mg/kg (high dose)): 118.71 ± 2.90 pg/mL | iNOS content in mouse liver tissue [10, 12]: no significant effect | iNOS content in mouse liver tissue ([10]; 100 mg/kg (medium dose)): 6.12 ± 0.05 pg/mL | iNOS content in mouse liver tissue ([10]; 150 mg/kg (high dose)): 4.88 ± 0.23 pg/mL
